Reference: patent US20230110875A1 (US Dept. of Health and Human Services, published 2023)
Results are given in words; binding and its absence hold for the method and conditions named. Some results given as binding are weak or reduced against the parent protein; the word gives no strength. Sequences can lack the tags named with a protein.

What was measured:
[1] = target: T1, human CD276-AP fusion protein (human) (UniProt Q5ZPR3); experiment: ELISA, human CD276-AP fusion protein coated at 2 ug/ml, serially diluted scFv-Fc culture medium, HRP goat anti-human IgG, OD 450 nm
T1 sequence (looked up): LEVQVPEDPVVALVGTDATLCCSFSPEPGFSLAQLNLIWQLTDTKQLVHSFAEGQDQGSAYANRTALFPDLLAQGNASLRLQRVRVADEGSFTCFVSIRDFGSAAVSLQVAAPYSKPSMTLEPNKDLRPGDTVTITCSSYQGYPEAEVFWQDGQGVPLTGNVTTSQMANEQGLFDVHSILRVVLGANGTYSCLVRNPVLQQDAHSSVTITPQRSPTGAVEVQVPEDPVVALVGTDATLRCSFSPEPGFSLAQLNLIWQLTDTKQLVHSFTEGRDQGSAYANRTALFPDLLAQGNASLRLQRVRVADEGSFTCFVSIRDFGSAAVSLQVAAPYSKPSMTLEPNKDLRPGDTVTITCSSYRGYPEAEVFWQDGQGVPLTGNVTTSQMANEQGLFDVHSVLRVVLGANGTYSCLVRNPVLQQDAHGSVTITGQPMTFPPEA

[2] = target: T1, human CD276-AP fusion protein (human); experiment: ELISA, human CD276-AP coated, scFv-Fc in culture medium serially diluted

binding [1]: binds
binding [2]: binds
B1: Clone CD276.1 (m851) scFv-Fc fusion protein (Fc fusion)
scFv: QVQLQQSGAEVKKPGSSVKVSCKASGGTFSSYAISWVRQAPGQGLEWMGGIIPILGIANYAQKFQGRVTITADESTSTAYMELSSLRSEDTAVYYCARGGAGGSGSYYPLIWGQGTTVTVSSGGGGSGGGGSGGGGSEIVLTQSPATLSLSPGERATLSCGASQSVSSSYLAWYQQKPGQAPRLLIYDASSRATGIPARFSGSGSGTDFTLTISSLEPEDFAVYYCQQRSSWPPTWTFGQGTKLEIKR
notes: also called m851 (CD276.1); not shown: Fc-Avi tag from modified pSecTag vector
